Article PMC8018997
Residue numbers refer to the chain shown, from its start. Names may count otherwise. These are yes or no findings as the source states them, for the method shown. For part of these data: Binding seen in cells or lysates may run through a third protein. Some entries that bind do so weakly or less than the wild type. For part of these data: Tags and fused reporters may be left off the sequences shown. One block for each binder: values may come before it.

Amino acid sequences for entries named in this document (tags omitted). A change or cut given only in a name is not applied to a line headed by its entry. Chains listed by the source or under a name are the forms on record and can include a tag or linker. Residues count along the entry.
UniProt O15379: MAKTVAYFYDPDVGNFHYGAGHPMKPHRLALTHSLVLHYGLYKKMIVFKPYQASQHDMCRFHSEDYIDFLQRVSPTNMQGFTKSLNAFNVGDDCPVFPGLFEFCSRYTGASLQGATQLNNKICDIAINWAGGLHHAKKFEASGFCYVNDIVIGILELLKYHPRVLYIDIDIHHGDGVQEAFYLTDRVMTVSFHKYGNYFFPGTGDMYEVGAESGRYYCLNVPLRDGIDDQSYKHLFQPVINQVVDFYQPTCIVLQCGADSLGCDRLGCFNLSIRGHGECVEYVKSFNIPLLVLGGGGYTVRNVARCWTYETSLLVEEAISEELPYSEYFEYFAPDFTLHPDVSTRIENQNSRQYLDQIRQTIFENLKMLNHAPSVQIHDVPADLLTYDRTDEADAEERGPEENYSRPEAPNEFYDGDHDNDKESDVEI
Flag-tagged HDAC3 (1-316 aa): residues 1-316 of O15379

Columns and labels:
[1] = biological target: T1, TBK1 as used in the immunoprecipitations of Figure S2A-C (construct not stated) (UniProt Q9UHD2); assay: co-IP
T1 sequence: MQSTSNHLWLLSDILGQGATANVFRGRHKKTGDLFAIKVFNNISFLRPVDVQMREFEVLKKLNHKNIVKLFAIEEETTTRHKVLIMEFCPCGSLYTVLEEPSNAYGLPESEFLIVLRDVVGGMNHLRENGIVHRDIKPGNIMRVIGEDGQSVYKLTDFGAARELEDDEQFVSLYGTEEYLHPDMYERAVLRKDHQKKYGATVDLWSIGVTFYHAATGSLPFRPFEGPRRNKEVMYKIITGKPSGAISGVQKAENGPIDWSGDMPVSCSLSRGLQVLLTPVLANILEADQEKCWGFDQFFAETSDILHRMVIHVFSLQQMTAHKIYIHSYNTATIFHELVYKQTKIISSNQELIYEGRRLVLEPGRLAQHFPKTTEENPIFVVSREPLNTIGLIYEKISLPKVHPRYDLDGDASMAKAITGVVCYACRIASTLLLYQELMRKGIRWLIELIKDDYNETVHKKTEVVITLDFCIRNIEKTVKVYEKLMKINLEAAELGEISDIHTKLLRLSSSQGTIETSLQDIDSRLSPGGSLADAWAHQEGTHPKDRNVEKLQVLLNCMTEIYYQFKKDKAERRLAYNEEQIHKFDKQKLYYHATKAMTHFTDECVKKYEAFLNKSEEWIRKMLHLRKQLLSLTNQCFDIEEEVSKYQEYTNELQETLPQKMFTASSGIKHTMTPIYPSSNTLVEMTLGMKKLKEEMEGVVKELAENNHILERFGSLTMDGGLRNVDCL

[2] = biological target: T2, Flag-tagged wild-type TBK1, Q9UHD2; assay: native gel or EMSA; HEK293T TBK1-knockout cells transfected 48 h with Flag-tagged TBK1 wild type or mutants; 8% native PAGE without SDS, then immunoblot; dimer or monomer form; conditions: remark: other sources report otherwise
T2 chain: T1 sequence

Flag-tagged TBK1 K692Q = biological target: T3, Flag-tagged TBK1 K692Q (UniProt Q9UHD2); assay: as above
T3 sequence: T1 sequence with K692Q

[3] = biological target: Flag-tagged HDAC3 (1-316 aa) (UniProt O15379); assay: co-IP
[4] = biological target: Flag-tagged wild-type HDAC3 (histone deacetylase 3) (UniProt O15379); assay: co-IP
Flag-tagged TBK1 K692R = biological target: T4, Flag-tagged TBK1 K692R (UniProt Q9UHD2); assay: native gel or EMSA; HEK293T TBK1-knockout cells transfected 48 h with Flag-tagged TBK1 wild type or mutants; 8% native PAGE without SDS, then immunoblot; dimer or monomer form
T4 sequence: T1 sequence with K692R

binding [1]: binds
B1: TANK (protein, UniProt Q92844 1-425)
chain: MDKNIGEQLNKAYEAFRQACMDRDSAVKELQQKTENYEQRIREQQEQLSLQQTIIDKLKSQLLLVNSTQDNNYGCVPLLEDSETRKNNLTLDQPQDKVISGIAREKLPKVRRQEVSSPRKETSARSLGSPLLHERGNIEKTFWDLKEEFHKICMLAKAQKDHLSKLNIPDTATETQCSVPIQCTDKTDKQEALFKPQAKDDINRGAPSITSVTPRGLCRDEEDTSFESLSKFNVKFPPMDNDSTFLHSTPERPGILSPATSEAVCQEKFNMEFRDNPGNFVKTEETLFEIQGIDPIASAIQNLKTTDKTKPSNLVNTCIRTTLDRAACLPPGDHNALYVNSFPLLDPSDAPFPSLDSPGKAIRGPQQPIWKPFPNQDSDSVVLSGTDSELHIPRVCEFCQAVFPPSITSRGDFLRHLNSHFNGET

binding [2]: binds
B2: Flag-tagged wild-type TBK1, Q9UHD2 1-729 (enzyme)
chain: T1 sequence

binding (Flag-tagged TBK1 K692Q): binds
B3: Flag-tagged TBK1 K692Q (enzyme, UniProt Q9UHD2 1-729)
chain: T1 sequence with K692Q

binding [3]: binds
binding [4]: binds
B4: HA-tagged TBK1 (TANK-binding kinase 1) (enzyme, UniProt Q9UHD2 1-729)
chain: T1 sequence

binding (Flag-tagged TBK1 K692R): binds
B5: Flag-tagged TBK1 K692R (enzyme, UniProt Q9UHD2 1-729)
chain: T1 sequence with K692R
